No constants are given. Whether binding was seen depends on the method and setting. In cells and extracts the contact can be indirect. Here binding means that the protein was enriched with, or labelled near, the bait; the list need not be complete. Sequences can lack the tags named with a protein.
T1: GFP-MKRN1^wt (Makorin Ring Finger Protein 1, wild type, N-terminally GFP-tagged) (human) (UniProt Q9UHC7)
T1 sequence: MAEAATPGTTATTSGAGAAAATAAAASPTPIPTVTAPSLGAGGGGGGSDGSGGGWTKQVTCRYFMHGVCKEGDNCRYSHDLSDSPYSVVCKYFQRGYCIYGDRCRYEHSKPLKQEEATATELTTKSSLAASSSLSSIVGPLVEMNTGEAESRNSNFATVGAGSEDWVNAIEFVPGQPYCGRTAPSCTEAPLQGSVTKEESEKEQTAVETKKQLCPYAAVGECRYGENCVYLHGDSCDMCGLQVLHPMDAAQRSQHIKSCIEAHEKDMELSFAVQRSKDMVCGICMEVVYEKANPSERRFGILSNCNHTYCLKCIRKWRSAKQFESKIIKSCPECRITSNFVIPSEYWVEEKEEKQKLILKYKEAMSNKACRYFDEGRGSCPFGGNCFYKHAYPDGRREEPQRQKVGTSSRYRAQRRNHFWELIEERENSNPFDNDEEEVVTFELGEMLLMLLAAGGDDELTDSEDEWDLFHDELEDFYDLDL


Target: T1, GFP-MKRN1^wt (Makorin Ring Finger Protein 1, wild type, N-terminally GFP-tagged) (human)
Assay: affinity purification with mass spectrometry; GFP-trap agarose beads with cleared lysates of HEK293T cells transiently expressing N-terminally GFP-tagged MKRN1 wt or mutants (medium or heavy SILAC) or GFP alone (light SILAC); mRIPA buffer, 1 h at 4 °C; three replicates, FDR < 5%

| Binder | binding |
| --- | --- |
| MOV10 (endogenous) (protein, UniProt Q9HCE1 1-1003) MPSKFSCRQLREAGQCFESFLVVRGLDMETDRERLRTIYNRDFKISFGTPAPGFSSMLYGMKIANLAYVTKTRVRFFRLDRWADVRFPEKRRMKLGSDISKHHKSLLAKIFYDRAEYLHGKHGVDVEVQGPHEARDGQLLIRLDLNRKEVLTLRLRNGGTQSVTLTHLFPLCRTPQFAFYNEDQELPCPLGPGECYELHVHCKTSFVGYFPATVLWELLGPGESGSEGAGTFYIARFLAAVAHSPLAAQLKPMTPFKRTRITGNPVVTNRIEEGERPDRAKGYDLELSMALGTYYPPPRLRQLLPMLLQGTSIFTAPKEIAEIKAQLETALKWRNYEVKLRLLLHLEELQMEHDIRHYDLESVPMTWDPVDQNPRLLTLEVPGVTESRPSVLRGDHLFALLSSETHQEDPITYKGFVHKVELDRVKLSFSMSLLSRFVDGLTFKVNFTFNRQPLRVQHRALELTGRWLLWPMLFPVAPRDVPLLPSDVKLKLYDRSLESNPEQLQAMRHIVTGTTRPAPYIIFGPPGTGKTVTLVEAIKQVVKHLPKAHILACAPSNSGADLLCQRLRVHLPSSIYRLLAPSRDIRMVPEDIKPCCNWDAKKGEYVFPAKKKLQEYRVLITTLITAGRLVSAQFPIDHFTHIFIDEAGHCMEPESLVAIAGLMEVKETGDPGGQLVLAGDPRQLGPVLRSPLTQKHGLGYSLLERLLTYNSLYKKGPDGYDPQFITKLLRNYRSHPTILDIPNQLYYEGELQACADVVDRERFCRWAGLPRQGFPIIFHGVMGKDEREGNSPSFFNPEEAATVTSYLKLLLAPSSKKGKARLSPRSVGVISPYRKQVEKIRYCITKLDRELRGLDDIKDLKVGSVEEFQGQERSVILISTVRSSQSFVQLDLDFNLGFLKNPKRFNVAVTRAKALLIIVGNPLLLGHDPDWKVFLEFCKENGGYTGCPFPAKLDLQQGQNLLQGLSKLSPSTSGPHSHDYLPQEREGEGGLSLQVEPEWRNEL | binds |
| UPF1 (endogenous) (protein, UniProt Q92900 1-1129) MSVEAYGPSSQTLTFLDTEEAELLGADTQGSEFEFTDFTLPSQTQTPPGGPGGPGGGGAGGPGGAGAGAAAGQLDAQVGPEGILQNGAVDDSVAKTSQLLAELNFEEDEEDTYYTKDLPIHACSYCGIHDPACVVYCNTSKKWFCNGRGNTSGSHIVNHLVRAKCKEVTLHKDGPLGETVLECYNCGCRNVFLLGFIPAKADSVVVLLCRQPCASQSSLKDINWDSSQWQPLIQDRCFLSWLVKIPSEQEQLRARQITAQQINKLEELWKENPSATLEDLEKPGVDEEPQHVLLRYEDAYQYQNIFGPLVKLEADYDKKLKESQTQDNITVRWDLGLNKKRIAYFTLPKTDSGNEDLVIIWLRDMRLMQGDEICLRYKGDLAPLWKGIGHVIKVPDNYGDEIAIELRSSVGAPVEVTHNFQVDFVWKSTSFDRMQSALKTFAVDETSVSGYIYHKLLGHEVEDVIIKCQLPKRFTAQGLPDLNHSQVYAVKTVLQRPLSLIQGPPGTGKTVTSATIVYHLARQGNGPVLVCAPSNIAVDQLTEKIHQTGLKVVRLCAKSREAIDSPVSFLALHNQIRNMDSMPELQKLQQLKDETGELSSADEKRYRALKRTAERELLMNADVICCTCVGAGDPRLAKMQFRSILIDESTQATEPECMVPVVLGAKQLILVGDHCQLGPVVMCKKAAKAGLSQSLFERLVVLGIRPIRLQVQYRMHPALSAFPSNIFYEGSLQNGVTAADRVKKGFDFQWPQPDKPMFFYVTQGQEEIASSGTSYLNRTEAANVEKITTKLLKAGAKPDQIGIITPYEGQRSYLVQYMQFSGSLHTKLYQEVEIASVDAFQGREKDFIILSCVRANEHQGIGFLNDPRRLNVALTRARYGVIIVGNPKALSKQPLWNHLLNYYKEQKVLVEGPLNNLRESLMQFSKPRKLVNTINPGARFMTTAMYDAREAIIPGSVYDRSSQGRPSSMYFQTHDQIGMISAGPSHVAAMNIPIPFNLVMPPMPPPGYFGQANGPAAGRGTPKGKTGRGGRQKNRFGLPGPSQTNLPNSQASQDVASQPFSQGALTQGYISMSQPSQMSQPGLSQPELSQDSYLGDEFKSQIDVALSQDSTYQGERAYQHGGVTGLSQY | binds |
